The list shows a part of the results. Values are raw readings; no control value is given beside them.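 Primary screen: polymyxin B was added at a level permeabilizing Salmonella outer membranes while sparing inner membranes. DMSO wells, both with and without polymyxin B, established maximum growth. Plate-to-plate variation meant each plate was ranked on its own, and the lowest-OD600 compounds were selected as hits.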
Test system: Salmonella enterica serovar Typhimurium SL1344
Assay: bacterial growth OD600 after 18 h with compound and polymyxin B; higher = more bacterial growth (less inhibition)
Conditions: 50 µM, Mueller-Hinton broth

SMILES	bacterial growth OD600 (polymyxin B 0.75 µg/mL)	bacterial growth OD600 (polymyxin B 1 µg/mL)
CCOc1ccccc1CN1CCC(C(Cc2ccccc2)N(CC)C(=O)C2CCOCC2)CC1 (stereo not given)	0.826	
NC(=O)C1CCCN(C(=O)c2ccc(OC3CCN(CCc4ccccc4)CC3)cc2)C1 (stereo not given)		1.21
CCOC(=O)C1(Cc2ccc(OC)cc2)CCN(S(=O)(=O)c2ccccc2)CC1		0.718
Cc1c[nH]c(CN(C)c2ccc(-c3nc(-c4ccccc4F)no3)cn2)n1		0.922
CC(=O)N1CCN(Cc2cn(-c3cccc(C)c3)nc2-c2cccc(F)c2)CC1		0.93
COCC(C)Nc1ccc(-c2nc(Cc3ccc(F)cc3)no2)cn1 (stereo not given)	0.41	
O=C(Cc1ccccc1)Nc1nc2c(s1)C(=O)CC(C(=O)NCc1cccc(-n3cccn3)c1)C2 (stereo not given)	1.03	
O=C(c1cn(C2CCCCC2)nn1)N(CC1CC1)CC1CCCO1 (stereo not given)		0.956
Cc1cc(C)n(Cc2cc(C(=O)N(C)C(C)c3ccon3)n[nH]2)n1 (stereo not given)	0.872	
COc1cc(C(=O)NC2CC(C)(C)CC(C)(C)C2)ccc1OC1CCN(C(C)=O)CC1		0.975
COc1cccc(CN2CCN(C(=O)CCC3(Cc4cccs4)CCC(=O)N3)CC2=O)c1 (stereo not given)	0.856	
COCCN(CC1CCN(Cc2ccccc2OC)CC1)C(=O)[C@H](C)NC(C)=O		0.956
CCNC(=O)c1cn(CC(C)C)cc(C(=O)N2CC3(C)CC2CC(C)(C)C3)c1=O (stereo not given)	0.828	
CN(C(=O)c1cnn(Cc2ccccc2)c1)C1CCCN(Cc2ccccc2F)C1 (stereo not given)		0.875
c1ccc(-c2ccc(-c3n[nH]cc3CN3CCN(c4ncccn4)CC3)cc2)cc1		0.006
COC(=O)C1CCN(CC2(O)CCCN(Cc3ccccc3F)C2=O)CC1 (stereo not given)		0.983
CCC1CN(CCC(=O)N2CCN(c3nc(C)cnc3C)CC2)Cc2ccc(Cl)cc2O1 (stereo not given)	0.793	
CC(C)(C)CN1CC(NS(=O)(=O)c2cccc(Cl)c2)CC1=O (stereo not given)	0.964	
CC(=O)NC1CCCc2nc(-c3ccccc3)ncc21 (stereo not given)		0.99
CCC(=O)N[C@@H]1c2ccccc2C2(CCN(Cc3ccc(C(=O)OC)cc3)CC2)[C@H]1OCCOC	0.868	

2 entries from above, reformatted:
SMILES | bacterial growth OD600 (polymyxin B 0.75 µg/mL) | bacterial growth OD600 (polymyxin B 1 µg/mL)
CCOc1ccccc1CN1CCC(C(Cc2ccccc2)N(CC)C(=O)C2CCOCC2)CC1 (stereo not given) | 0.826 | 
NC(=O)C1CCCN(C(=O)c2ccc(OC3CCN(CCc4ccccc4)CC3)cc2)C1 (stereo not given) |  | 1.21
